In all, about 53,000 sequences went through this assay and about 3,700 (7%) were called active.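 The calls were made as follows: active = gene knockdowns whose robust z-score for IL-1 alpha signal is at least 2 or at most -2, so actives lie on both sides; inactive = the rest.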 This is one part of the list.
Assay: Components of the Cytosolic LPS Sensing Pathway: Gene Identification via Genome-wide siRNA Screen;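 also: robust z of the log signal after scaling to non-targeting control siRNA wells of the plate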
Settings: RAW264.7 macrophages, IL-1a HTRF, actives lie on both sides, screened at 100 nM (by protocol), cells primed 5 h with Pam3CSK4 first
How it was run: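 Using IL-1a HTRF as read-out, the screen measured release from RAW264.7 cells after 48h siRNA knockdown (100 nM), 5 h Pam3CSK4 priming and 24 h cytosolic LipidA. Values were expressed relative to negative-control wells as robust z-scores.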
In the case of GGAGUCAAAAGAAAAGAAGTT against Galm, the z-score was inactive: 1.54.
In the case of GGUCUGGAGACAAUCAUCATT against Rnf222, the z-score was active: -2.47.
In the case of GGCAGCAAACCUUUGCUAUTT against Itfg2, the z-score was inactive: 1.39.
With GGACCUGAACACAGCUACUTT against Stoml1 the z-score was inactive: 1.04.
In the case of UUCUAUGCCAUAUCCAUCATT against Olfr645, the z-score was inactive: 1.52.
With GGUACUGCUGCUUCAGCAUTT against Pakap the z-score was inactive: -0.831.
With GCAAGUAUAUUAGAUGAGCTT against Smtnl1 the z-score was inactive: -0.16.
With GGAAAAUGCCUCAAGACUUTT against Wdr5b the z-score was inactive: -0.0565.
In the case of GGUUCAAUUCAAGUCUUUATT against Olfr195, the z-score was inactive: 0.339.
For GGUUACUAUGGAGACCUGGTT against Mia, the z-score was inactive: 0.429.
With GGGAGGAUGCUGUUUCCAATT against Ssr3 the z-score was inactive: 0.683.
With GGCACAGAAAACAGUCAAATT against Trmt1l the z-score was inactive: 0.0602.
For AGCAGAAAAAGGAAGGCCATT against Xlr3c, the z-score was inactive: 0.733.
For CCACUUAUAUUUGAUCUCATT against Ift80, the z-score was inactive: 0.306.
In the case of GGAAUGAGAUUUCUUCAUGTT against Itih2, the z-score was inactive: -0.384.
For GCCUUCAUUCUGGUAGCUATT against Olfr207, the z-score was inactive: -1.14.
In the case of GGAAGACUCAGAGAUCCGATT against Atp13a1, the z-score was inactive: -0.319.
In the case of CGGCUAUGUCCGUCAUUGGTT against Hypk, the z-score was inactive: -0.268.
For GGCAGCUGUAGAGGUGUUCTT against Haus7, the z-score was active: 2.36.
With GGCAUUCCUCUUGAAUAUUTT against Dck the z-score was inactive: -0.805.
For GGAGGAUUUAAACCGGGAGTT against Ugt1a7c, the z-score was inactive: -0.0287.
For GCGAUAUGCCCUAACUGGATT against Mmp24, the z-score was inactive: 0.967.
In the case of GGUGCAAAGGCUCAAACAGTT against Rasd1, the z-score was inactive: -0.331.
With GGAGUUAAACCACUCAAGATT against Ceacam11 the z-score was inactive: -0.262.
In the case of GGAAUUGUCUAACAGGCUGTT against Hoxd12, the z-score was inactive: -0.025.
With GGACAGAGUUCGAUCGACUTT against Gramd4 the z-score was inactive: 0.504.
With GCAGUUCUACGGACAUUUCTT against Pcdhb1 the z-score was inactive: 0.147.
For CCUGUUUAGCAUCUGGGAGTT against Gpr1, the z-score was active: 6.24.
In the case of CGGUAUUUCGGCAUAAUAATT against Chek1, the z-score was inactive: -1.26.
With GGUACCAACAAGAUGACUGTT against Irgm2 the z-score was inactive: 0.835.
For GGCUUUGAACAGGAAAGACTT against Ube2z, the z-score was inactive: -0.417.
With GCUUUUUGAGUCUGAUUUATT against Dmgdh the z-score was inactive: 0.413.
With GGGCAGUCCAGGAAGAUUGTT against Akap3 the z-score was inactive: -0.929.
For CCUUUUUUGUCGUACGUUUTT against Prkx, the z-score was inactive: 0.149.
In the case of GGCAGCAUUUAUGGAGUACTT against Colgalt1, the z-score was inactive: -1.4.
In the case of CCGUGAGAGUUUGGUGGUATT against Mcm2, the z-score was inactive: -0.963.
For “GCAAGAUUGGAAUGCUCCATT against 3830403N18Rik”, the z-score was inactive: 0.309.
With GCCUGAAUUUGUAAGCAGUTT against Fgf1 the z-score was inactive: 0.0666.
For GGAAUAAGUCGGGCUAUCUTT against Dffb, the z-score was inactive: -0.582.
For GGGCAAGUUUCAUGGAAAUTT against Stat4, the z-score was inactive: 0.103.
For GGAGAGCUAGCUUGACAUGTT against Tceanc2, the z-score was inactive: -0.397.
With CGACCCUACAGAGGACAUUTT against Pik3r6 the z-score was inactive: 0.135.
With GGUACAUUGAGAACAACAGTT against Axin2 the z-score was inactive: -0.43.
For GGAUCAGUUGAUCUCAGUGTT against Olfr1406, the z-score was inactive: -0.52.
For GCUAACAGUAUCCUUAUUUTT against Vmn1r53, the z-score was inactive: -0.436.
With GGAAGCACUCAGUGCUCUGTT against Igfbp6 the z-score was active: 2.06.
With GCUUUGGUUGCUAACCCAATT against Slc45a2 the z-score was inactive: 0.407.
For GGGAUAUCGUUUGGUAUAGTT against Saa4, the z-score was inactive: -0.677.
In the case of GGACAGCAAGAUGAAGAUGTT against Il17ra, the z-score was inactive: -1.32.
For CGAAGUUCCCUUUGAGUUUTT against Noa1, the z-score was inactive: -0.305.
For GCUAAGCUAGAACAUGAAUTT against Mapre1, the z-score was inactive: -0.932.
With GCAGAUUGGCGAUACCCUGTT against Alcam the z-score was inactive: -1.57.
With GGGCCAAUAAAGAGGACAGTT against Aanat the z-score was active: 2.38.
In the case of GCUCCACUUUGGAGUUGGATT against Trub2, the z-score was inactive: 0.0788.
For GGCAGCAGCAAGUUUCUUCTT against Rbm38, the z-score was active: -2.31.
In the case of GGAAUCACGUUCCAAACAUTT against Vmn1r51, the z-score was inactive: -1.35.
For GCUCGUUGUCUAGUUUGGGTT against Ube4b, the z-score was inactive: 1.32.
In the case of GGAACUGCCCAGUUCUUAATT against Ppan, the z-score was inactive: 0.424.
With GCAAACUCCAGCUCAACGATT against Galnt4 the z-score was inactive: -1.19.
With GGCUCUAACAUGACAAUUUTT against Hyal1 the z-score was inactive: -0.251.
In the case of GGAAGGCCGAGAAGAAUUCTT against Kat8, the z-score was inactive: -0.133.
With GCUUCCAGACAAGCUUCGATT against Mthfd1l the z-score was inactive: -1.01.
For GGUCCUAAAGCCUUUUCUATT against Mrpl10, the z-score was inactive: 0.199.
With GGUGGUUCACUGUAAGCCGTT against Spry4 the z-score was inactive: 1.04.
With CCUGUUCAAAAGGUAUACATT against Fignl1 the z-score was inactive: -1.83.
With GCUCAAAUCGUACAAGUGUTT against Panx1 the z-score was inactive: 0.214.
For GGGCAAAGAACUGAACGAATT against Pfdn2, the z-score was inactive: -1.03.
For GGUGCCAUUCAUCUUUCAATT against Tmprss3, the z-score was inactive: 1.85.
